The list shows a part of the results.
Key:
Experiment in all cases: NMR binding call after quantification (hit when 2 of 3 NMR criteria are met) (binary (1 = binding, 0 = not binding)); higher = binding
Conditions in all cases: RNA concentration 10 µM; fragment concentration 200 µM; 293 K
SARS-CoV-2 5_SL7 RNA = system: SARS-CoV-2 5_SL7 RNA
SARS-CoV-2 5_SL8 RNA = system: SARS-CoV-2 5_SL8 RNA
[1] = system: SARS-CoV-2 attenuator hairpin (att HP) RNA
[2] = system: SARS-CoV-2 frameshift pseudoknot (PK) RNA

Structure (SMILES) | NMR binding call (SARS-CoV-2 5_SL7 RNA) | NMR binding call (SARS-CoV-2 5_SL8 RNA) | NMR binding call [1] | NMR binding call [2]
CCN(CC)C(=O)c1cc(C)no1 | 0 | 0 | 0 | 0
CCNc1ccc(C#N)cn1 | 0 | 0 | 0 | 0
CS(=O)(=O)NCCc1ccccc1 | 0 | 0 | 0 | 0
Cc1cc(CN(C)C(=O)NC2CC2)no1 | 0 | 0 | 0 | 0
CC(Oc1ccc(C#N)cc1)C(N)=O (stereo unspecified) | 0 | 0 | 0 | 0
CC(C)c1ccc(NC(=O)N2CCOCC2)cc1 | 0 | 0 | 0 | 0
CS(=O)(=O)NCCc1ccc(F)cc1 | 0 | 0 | 0 | 0
CC(C)N(C)S(=O)(=O)N1CCNC(=O)C1 | 0 | 0 | 0 | 0
CNC(=O)NCc1c(F)cccc1Cl | 0 | 0 | 0 | 0
Cc1ccc(C(=O)Nc2nnc[nH]2)cc1C | 0 | 0 | 0 | 0
CNC1(C(N)=O)CCCC1 | 0 | 0 | 0 | 0
Oc1cccc(CN2CCSCC2)c1 | 0 | 0 | 0 | 0
Cc1ccc(C)c(OC(=O)c2ccncc2)c1 | 0 | 0 | 0 | 0
O=C(CCc1ccccc1)Nc1ccc(O)cc1 | 0 | 0 | 0 | 0
CC(=O)Nc1cccnc1C(=O)O | 0 | 0 | 0 | 0
Nc1ccccc1N1CCOCC1 | 0 | 0 | 0 | 0
Cc1csc(CNC(=O)C2CCC2)n1 | 0 | 0 | 0 | 0
COc1cc(NC(C)=O)c(OC)cc1Cl | 0 | 0 | 0 | 0
Cc1cc(N(C)C2CC(O)C2)nc(C)n1 (stereo unspecified) | 0 | 0 | 0 | 0
Cc1ccc(CNC(=O)Cc2cccs2)cc1 | 0 | 0 | 0 | 0
O=C(NCC1CC1)Nc1ccc2c(c1)CCO2 | 0 | 0 | 0 | 0
c1ccc(-c2ccc(-n3cnnn3)cc2)cc1 | 1 | 0 | 0 | 1
C1CC(CNC2CC2)CO1 (stereo unspecified) | 0 | 0 | 0 | 0
CC(=O)N(C)c1cccnc1 | 0 | 0 | 0 | 0

Structure (SMILES) | NMR binding call (SARS-CoV-2 5_SL7 RNA) | NMR binding call (SARS-CoV-2 5_SL8 RNA) | NMR binding call [1] | NMR binding call [2]
CC(=O)Nc1cccc(F)c1C(=O)O | 0 | 0 | 0 | 0
CNC(C)c1sc(C)nc1C (stereo unspecified) | 0 | 0 | 0 | 0
COc1ccc(CN)cc1OC | 0 | 0 | 0 | 0
COC(=O)C1CCN(CC(N)=O)CC1 | 0 | 0 | 0 | 0
NC(=O)N1CCN(C(=O)c2ccco2)CC1 | 0 | 0 | 0 | 0
CC(=O)Nc1cc2c(cc1C)OCO2 | 0 | 0 | 0 | 0
CC1CN(C(=O)Cn2cccn2)CCO1 (stereo unspecified) | 0 | 0 | 0 | 0
Cl.O=C(O)CCN1CCCCC1 | 0 | 0 | 0 | 0
O=C(CCCc1ccccc1)N1CCOCC1 | 0 | 0 | 0 | 0
O=C(NCCc1ccccc1)NC1CCCCC1 | 0 | 0 | 0 | 0
CC(O)CCn1cccn1 (stereo unspecified) | 0 | 0 | 0 | 0
COc1ccc(CCC2(C)NC(=O)NC2=O)cc1 (stereo unspecified) | 0 | 0 | 0 | 0
CC(=O)N1CCCC2(CCCCCC2)C1 | 0 | 0 | 0 | 0
Cc1ccc(C(N)=O)c(F)c1 | 0 | 0 | 0 | 0
Nc1ncncc1-c1ccc(Cl)cc1 | 0 | 0 | 0 | 0
CCn1cc(CNC(=O)c2cccnc2)cn1 | 0 | 0 | 0 | 0
Cc1cc(C(=O)NCC2CCOC2)on1 (stereo unspecified) | 0 | 0 | 0 | 0
O=C(COC(F)F)N1CCCC2(CC2)C1 | 0 | 0 | 0 | 0
CC1CN(C(=O)c2cnsn2)C(C)CO1 (stereo unspecified) | 0 | 0 | 0 | 0
Cc1ncsc1C(=O)N1CCCNCC1.Cl.Cl | 0 | 0 | 0 | 0
CC(=O)NCc1ccc(S(N)(=O)=O)cc1 | 0 | 0 | 0 | 0
CC1CCN(C(=O)CC(F)(F)F)CC1 | 0 | 0 | 0 | 0
CCn1c(NC(C)=O)nc2ccccc21 | 0 | 0 | 0 | 0
Cl.O=C(O)CN1CCC(c2ccccc2)CC1 | 0 | 0 | 0 | 0

Structure (SMILES) | NMR binding call (SARS-CoV-2 5_SL7 RNA) | NMR binding call (SARS-CoV-2 5_SL8 RNA) | NMR binding call [1] | NMR binding call [2]
CC(=O)Nc1ccccc1CC(=O)O | 0 | 0 | 0 | 0
Cn1ccc(NCc2ccccc2)n1 | 0 | 0 | 0 | 0
CC(=O)Nc1cc(C)n[nH]1 | 0 | 0 | 0 | 0
CC(=O)c1ccc(N2CCC(C(N)=O)CC2)cc1 | 0 | 0 | 0 | 0
OCC1CN(Cc2ccccc2)CCO1 (stereo unspecified) | 0 | 0 | 0 | 0
CC(=O)N1CC(C(=O)O)C1 | 0 | 0 | 0 | 0
NNC(=O)c1ccc(OCc2ccccc2)cc1 | 0 | 0 | 0 | 0
Cn1cc(Cl)c(C(=O)NC2CCCC2)n1 | 0 | 0 | 0 | 0
O=C(Nc1ccc(-n2cnnn2)cc1)C1CCC1 | 0 | 0 | 0 | 0
CC(C)N1CCCC(CO)C1 (stereo unspecified) | 0 | 0 | 0 | 0
Cc1ccc(NC(=O)C2CCCO2)nc1 (stereo unspecified) | 0 | 0 | 0 | 0
NC(=O)c1ccc(NC(=O)C2CCCC2)cc1 | 0 | 0 | 0 | 0
CCC(CC)C(=O)Nc1ccccc1O | 0 | 0 | 0 | 0
CC(=O)Nc1ccc(C#N)cc1 | 0 | 0 | 0 | 0
CC1CN(S(C)(=O)=O)CCC1N (stereo unspecified) | 0 | 0 | 0 | 0
O=C(C1CC1)N1CCN(c2ccc(F)cc2)CC1 | 0 | 0 | 0 | 0
O=C(COc1ccc(F)cc1)N1CCCC1 | 0 | 0 | 0 | 0
Cc1ncsc1C(=O)N1CCNC(=O)C1 | 0 | 0 | 0 | 0
Cc1[nH]cnc1CN1CCc2ccccc2C1 | 0 | 0 | 0 | 0
CNC(=O)C1CCCc2sc(C)nc21 (stereo unspecified) | 0 | 0 | 0 | 0
CN(C)C(=O)N1CCN(C(=O)N(C)C)CC1 | 0 | 0 | 0 | 0
c1cnc(N2CCC3(CCOC3)C2)cn1 (stereo unspecified) | 0 | 0 | 0 | 0
CS(=O)(=O)N1CCCC(C(=O)O)C1 (stereo unspecified) | 0 | 0 | 0 | 0
CC(=O)NCC1(O)CCCC1 | 0 | 0 | 0 | 0

Structure (SMILES) | NMR binding call (SARS-CoV-2 5_SL7 RNA) | NMR binding call (SARS-CoV-2 5_SL8 RNA) | NMR binding call [1] | NMR binding call [2]
NC(=O)N1CCN(c2ccc(F)cc2)CC1 | 0 | 0 | 0 | 0
CCc1ccc(C(=O)NCc2cnn(C)c2)s1 | 0 | 0 | 0 | 0
CC(CS(N)(=O)=O)c1ccccc1 (stereo unspecified) | 0 | 0 | 0 | 0
COCC(=O)Nc1ccccc1 | 0 | 0 | 0 | 0
CN1CCN(c2ccc(C#N)cc2)CC1 | 1 | 0 | 0 | 0
CCc1nnc(NC(=O)CN(C)C)s1 | 0 | 0 | 0 | 0
CC(=O)c1cccc(NC(=O)N2CCOCC2)c1 | 0 | 0 | 0 | 0
O=C(c1ccco1)N1CCN(C(=O)C2CC2)CC1 | 0 | 0 | 0 | 0
CCC(=O)Nc1ccc(S(N)(=O)=O)cc1 | 0 | 0 | 0 | 0
CCc1nnc(NC(=O)c2cnccn2)s1 | 0 | 0 | 0 | 0
Fc1ccccc1CNC1CCOCC1 | 0 | 0 | 0 | 0
O=C(Cc1ccc(F)cc1)NC1CCCCC1 | 0 | 0 | 0 | 0
CN(C1CCCCCC1)S(C)(=O)=O | 0 | 0 | 0 | 0
Oc1ccc(CN2CCCC2)c2cccnc12 | 0 | 0 | 0 | 0
COC(=O)N1CCN(c2ccc(F)cc2)CC1 | 0 | 0 | 0 | 0
O=C(c1ccc2c(c1)OCO2)N1CCCCCC1 | 0 | 0 | 0 | 0
COC(=O)c1cccc(NS(C)(=O)=O)c1 | 0 | 0 | 0 | 0
CC(=O)Nc1cc(C(N)=O)cc(C(N)=O)c1 | 0 | 0 | 0 | 0
COc1ccc(Cl)cc1C(=O)NCC(C)C | 0 | 0 | 0 | 0
O=C(Nc1ccc(Cl)cc1)Nn1cnnc1 | 0 | 0 | 0 | 0
CCOc1c(F)cccc1C(=O)N(C)C | 0 | 0 | 0 | 0
CC(=O)Nc1ncc(Cc2cccc(C)c2)s1 | 0 | 0 | 0 | 0
